Measurements reported in PubChem BioAssay AID1259275 (Sanger Institute, 2017).
Aim: 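Knock-downs that cut viability on their own or combined with BYL719, cetuximab or trametinib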 (primary screen). System: COLO320HSR human colorectal cancer cells. Reagents: siRNA pool against human genes. Challenge: anchor drug added one day after transfection: BYL719 at 1 µM, cetuximab at 5 µg/ml or trametinib at 10 nM; DMSO as vehicle arm. Detection: 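Viability averaged over replicates as a fraction of the non-targeting pool, a robust z-score for knock-down alone, and synergy scores with BYL719 (1 µM), cetuximab (5 µg/ml) or trametinib (10 nM)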. Scale: robust z-score, siRNA alone: higher = more viable cells; strongly negative means essential; viability, knock-down alone (DMSO): higher = more viable cells; synergy score with BYL719 and synergy score with cetuximab and synergy score with trametinib: higher = stronger combined killing with drug. Active means: 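a gene is called essential when its robust z-score without drug falls below -3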. Calls: active = essential (siRNA alone); inactive = no change (siRNA alone).
This is an unselected part of 794 reagents. 13 of all reagents (1.6%) were called active. 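Calls mark knock-downs lethal by themselves, not drug synergy; drugs went in a day after transfection, with DMSO as vehicle.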 No viability above 1 is reported: the scale is capped. Not given: the amount of reagent, the time to read-out.

gene knocked down	robust z-score, siRNA alone	viability, knock-down alone (DMSO) (fraction of control)	synergy score with BYL719	synergy score with cetuximab	synergy score with trametinib	Outcome
NRBP1 (nuclear receptor binding protein 1)	0.726	1	-0.244	-0.0893	-0.0259	inactive
NUAK2 (NUAK family kinase 2)	-1.04	0.841	-0.03	-0.11	-0.117	inactive
PIK3R4 (phosphoinositide-3-kinase regulatory subunit 4)	0.207	0.953	0.058	-0.132	0.0361	inactive
PIK3CA	0.51	0.981	-0.169	-0.107	0.0279	inactive
STK25 (serine/threonine kinase 25)	0.726	1	-0.0295	-0.0513	0.043	inactive
EIF2AK2 (eukaryotic translation initiation factor 2 alpha kinase 2)	0.552	0.984	-0.0145	-0.104	0.0113	inactive
CDC7 (cell division cycle 7)	0.0892	0.942	-0.164	-0.142	-0.0819	inactive
SBK1 (SH3 domain binding kinase 1)	0.284	0.96	-0.258	-0.0726	-0.0648	inactive
SGK1 (serum/glucocorticoid regulated kinase 1)	-0.0138	0.933	-0.222	-0.0405	-0.091	inactive
ADCK2 (aarF domain containing kinase 2)	-0.656	0.875	-0.104	-0.203	0.055	inactive
TSSK4 (testis specific serine kinase 4)	0.314	0.963	-0.136	-0.123	0.00177	inactive
CIB2 (calcium and integrin binding family member 2)	0.01	0.935	-0.00252	-0.0603	0.0307	inactive
MARK2 (microtubule affinity regulating kinase 2)	-0.134	0.922	-0.163	-0.0123	-0.0286	inactive
AURKB (aurora kinase B)	-0.889	0.854	-0.14	-0.0505	-0.0906	inactive
PANK1 (pantothenate kinase 1)	0.498	0.979	-0.234	-0.108	-0.046	inactive
AK2 (adenylate kinase 2)	0.249	0.957	-0.147	-0.0205	-0.0466	inactive
NR4A2 (nuclear receptor subfamily 4 group A member 2)	0.347	0.966	-0.0791	-0.121	0.126	inactive
GAK (cyclin G associated kinase)	-0.0522	0.93	-0.149	-0.153	-0.0944	inactive
TYK2 (tyrosine kinase 2)	0.726	1	-0.269	-0.0893	-0.0259	inactive
ALK (ALK receptor tyrosine kinase)	0.726	1	-0.168	-0.0893	-0.0259	inactive
